Data taken from patent CN113321733A.
Results are given in words; binding and its absence hold for the method and conditions named. Some entries that bind do so weakly or less than the wild type.

By UniProt entry, the sequences of proteins in these tests, tags left out.
UniProt P19821: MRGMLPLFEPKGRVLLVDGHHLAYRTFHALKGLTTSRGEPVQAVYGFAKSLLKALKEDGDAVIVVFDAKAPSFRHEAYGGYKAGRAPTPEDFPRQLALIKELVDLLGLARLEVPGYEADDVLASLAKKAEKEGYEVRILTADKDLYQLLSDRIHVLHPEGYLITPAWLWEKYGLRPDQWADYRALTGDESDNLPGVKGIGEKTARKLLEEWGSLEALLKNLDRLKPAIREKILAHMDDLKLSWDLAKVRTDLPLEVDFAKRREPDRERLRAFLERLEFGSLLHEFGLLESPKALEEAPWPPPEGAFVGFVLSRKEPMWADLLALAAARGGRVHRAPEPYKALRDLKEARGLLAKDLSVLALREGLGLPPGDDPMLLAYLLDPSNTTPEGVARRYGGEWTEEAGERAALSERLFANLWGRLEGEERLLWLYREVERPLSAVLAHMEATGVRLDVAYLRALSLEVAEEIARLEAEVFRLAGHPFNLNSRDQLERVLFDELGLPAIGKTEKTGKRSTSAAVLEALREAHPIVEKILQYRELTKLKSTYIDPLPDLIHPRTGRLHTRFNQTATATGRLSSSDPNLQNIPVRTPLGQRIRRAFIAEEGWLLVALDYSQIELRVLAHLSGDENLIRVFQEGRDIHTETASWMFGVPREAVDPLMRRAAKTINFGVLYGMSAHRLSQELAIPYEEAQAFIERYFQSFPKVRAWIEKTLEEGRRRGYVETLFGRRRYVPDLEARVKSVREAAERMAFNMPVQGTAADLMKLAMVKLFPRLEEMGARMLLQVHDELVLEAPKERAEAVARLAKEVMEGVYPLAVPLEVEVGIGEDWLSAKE

Molecular target: Ex Taq DNA聚合酶 (货号为RR001Q，TaKaRa公司) (UniProt P19821)
Assay: molecular beacon polymerase inhibition assay, hybridoma supernatant mixed with Ex Taq

binding: binds
B1: 单克隆抗体1C4 (Taq DNA聚合酶单克隆抗体) (antibody, mouse IgG1, V domains shown)
VH: QVQLQQPGAELVKPGTSVKLSCKASGYNFTSHWINWVKLRPGQGLEWIGDIYPGRGSTNYNEKFRNKATLTVDTSSSSAYMQLSSLASEDSALYYCARGVFYAMDYWGQGTSVS
VL: SIVMTQTPKFLLVSAGDRVTMTCKASQSVDNDVAWYQQKPGQSPKLLIYSASNRYTGVPDRFTGSGFGTDFTFTISTVQAEDLALYFCQQYYSSPWTFGGGTNLKSN
